Binding result and Kd data for 3 sequences are collected here from PMC13431160.

Chains of the proteins cited; added tags and fusions are not shown.
UniProt O00425, whole entry: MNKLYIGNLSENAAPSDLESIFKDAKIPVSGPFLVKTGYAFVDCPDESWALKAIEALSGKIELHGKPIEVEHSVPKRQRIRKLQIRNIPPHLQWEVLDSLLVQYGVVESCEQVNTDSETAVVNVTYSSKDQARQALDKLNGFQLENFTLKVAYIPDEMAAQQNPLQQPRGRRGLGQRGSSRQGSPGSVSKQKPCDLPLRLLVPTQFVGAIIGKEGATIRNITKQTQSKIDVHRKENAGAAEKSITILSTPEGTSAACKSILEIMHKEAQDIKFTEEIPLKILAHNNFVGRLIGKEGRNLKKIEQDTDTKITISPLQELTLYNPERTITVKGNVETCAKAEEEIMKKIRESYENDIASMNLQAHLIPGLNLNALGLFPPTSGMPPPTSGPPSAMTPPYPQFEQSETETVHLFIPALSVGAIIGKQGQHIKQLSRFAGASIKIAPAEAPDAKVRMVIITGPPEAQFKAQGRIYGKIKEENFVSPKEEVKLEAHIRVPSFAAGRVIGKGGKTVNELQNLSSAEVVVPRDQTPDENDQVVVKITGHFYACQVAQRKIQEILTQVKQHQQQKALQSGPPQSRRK

The comparison behind a weaker result is the experiment's own reference, which may not be listed here. For at least one entry, the source does not settle the construct or the ends of the probe.

The series addresses IGF2BP3 WT (UniProt O00425). The experiment in a line: fluorescence anisotropy. The conditions noted are these: 25 mM HEPES pH 7.2, 150 mM NaCl, 25 nM RNA, 3.9 nM-4 uM protein, 30 min on ice, read at 20 C, recombinant protein, residues 1-579, protein details: N-terminal GST removed by 3C cleavage (pGEX-6P-2), label: 5' fluorescein.

As to “UAAAAAAAAA [poly(A) negative control RNA]”, the binding result (5' fluorescein-dT (FluorT) precedes the tagged RNA S9) is given as “binds more weakly”. Take TAAUCCAGAA [UCCAG motif RNA]: the Kd – broadly, the constant that tells how readily two partners part at equilibrium – (5' fluorescein-dT (FluorT) precedes the tagged RNA S6) turned out to be 400 nM. With TAACAUUUAA [CAUUU motif RNA], the Kd (5' fluorescein-dT (FluorT) precedes the tagged RNA S7) turned out to be 400 nM.
